According to the supplement of paper PMC4604168 (melanoma cell lines):
The list shows a part of the results. Single values are uncertain, as repeats are few or missing.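 Imaging used 1,536-well plates; nuclei positive for cleaved PARP by antibody were divided by total DNA-stained nuclei to yield the apoptosis fraction. Doses for screening kept most cells viable, and cell lines differ markedly in resting and induced cleaved-PARP levels.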

How the values were obtained:
Test in all cases: cleaved PARP positive nuclei fraction relative to DMSO control; melanoma cells; higher = more apoptosis
Details in all cases: library dose: low library concentration; 72 h
MZ2-MEL = tested on: MZ2-MEL
MeWo = tested on: MeWo
RPMI7951 = tested on: RPMI7951
RVH-421 = tested on: RVH-421
SkMel28 = tested on: SkMel28
SkMel2 = tested on: SkMel2
SkMel30 = tested on: SkMel30
SkMel5 = tested on: SkMel5
UACC257 = tested on: UACC257
UACC62 = tested on: UACC62

Compound	cleaved PARP positive nuclei fraction (MZ2-MEL) [%]	cleaved PARP positive nuclei fraction (MeWo) [%]	cleaved PARP positive nuclei fraction (RPMI7951) [%]	cleaved PARP positive nuclei fraction (RVH-421) [%]	cleaved PARP positive nuclei fraction (SkMel28) [%]	cleaved PARP positive nuclei fraction (SkMel2) [%]	cleaved PARP positive nuclei fraction (SkMel30) [%]	cleaved PARP positive nuclei fraction (SkMel5) [%]	cleaved PARP positive nuclei fraction (UACC257) [%]	cleaved PARP positive nuclei fraction (UACC62) [%]
C[C@]1(O)C[C@@H](c2nc(-c3ccc4ccc(-c5ccccc5)nc4c3)c3c(N)nccn32)C1 + O=C(CCCCCCC(=O)Nc1ccccc1)NO [vorinostat] (first compound 0.4 µM, partner dose 0.08 µM)	258	53.9	49	44.6	90.9	86.8	71.4	194	257	368
Cn1cnc2c(F)c(Nc3ccc(Br)cc3Cl)c(C(=O)NOCCO)cc21 [selumetinib] + CC1(C)NC(=O)N(c2ccc([N+](=O)[O-])c(C(F)(F)F)c2)C1=O [nilutamide] (first compound 0.015 µM, partner dose 1 µM)	464	77.7	90.6	165	213	117	198	103	137	183
Cn1sc(=O)n(Cc2ccccc2)c1=O + O=C1NC(=O)/C(=C/c2ccc(-c3ccc(F)cc3O)o2)S1 [AS252424] (first compound 0.4 µM, partner dose 1 µM)	311	28.1	48	150	74.9	109	309	35.5	182	160
CS(=O)(=O)c1ccc(C(=O)Nc2ccc(Cl)c(-c3ccccn3)c2)c(Cl)c1 [vismodegib] + COc1cc(N2CCC(N3CCN(C)CC3)CC2)ccc1Nc1ncc(Cl)c(Nc2ccccc2S(=O)(=O)C(C)C)n1 [NVP-TAE684] (first compound 1 µM, partner dose 0.08 µM)	137	347	111	154	230	152	24.9	84	495	139
CC(=O)O[C@@]12CO[C@@H]1C[C@H](O)[C@@]1(C)C(=O)[C@H](O)C3=C(C)[C@@H](OC(=O)[C@H](O)[C@@H](NC(=O)OC(C)(C)C)c4ccccc4)C[C@@](O)([C@@H](OC(=O)c4ccccc4)[C@H]21)C3(C)C [Docetaxel] + Oc1nc(-c2ccc(C(F)(F)F)cc2)nc2c1CSCC2 [XAV939] (first compound 0.0001 µM, partner dose 2 µM)	321	169	805	178	628	747	257	103	291	689
COc1ccc(C2=N[C@@H](c3ccc(Cl)cc3)[C@@H](c3ccc(Cl)cc3)N2C(=O)N2CCNC(=O)C2)c(OC(C)C)c1 [Nutlin-3] + COc1cc(N2CCC(N3CCN(C)CC3)CC2)ccc1Nc1ncc(Cl)c(Nc2ccccc2S(=O)(=O)C(C)C)n1 [NVP-TAE684] (first compound 0.1 µM, partner dose 0.08 µM)	55.6	142	152	157	145	103	194	73.1	89.6	171
Cn1sc(=O)n(Cc2ccccc2)c1=O + CC(C)(C)c1cnc(CSc2cnc(NC(=O)C3CCNCC3)s2)o1 [SNS-032] (first compound 0.4 µM, partner dose 0.01 µM)	345	101	149	293	97.8	124	69.9	146	104	516
CS(=O)(=O)c1ccc(C(=O)Nc2ccc(Cl)c(-c3ccccn3)c2)c(Cl)c1 [vismodegib] + Cc1cc(N2CCOCC2)cc2[nH]c(-c3c(NC[C@@H](O)c4cccc(Cl)c4)cc[nH]c3=O)nc12 [BMS536924] (first compound 1 µM, partner dose 0.2 µM)	84	110	49.1	91.3	59.1	115	90.9	69.5	73.6	158
Cn1cnc2c(F)c(Nc3ccc(Br)cc3Cl)c(C(=O)NOCCO)cc21 [selumetinib] + NC(=O)Nc1cc(-c2cccc(F)c2)sc1C(=O)N[C@H]1CCCNC1 [AZD7762] (first compound 0.015 µM, partner dose 0.02 µM)	421	88.1	160	47.6	86.5	166	82.5	114	38.6	135
